This is one part of the list.

Protein sequences, listed by entry. Tags and fused reporters are not part of them. Lines headed by an entry give the natural chain unless they say otherwise; changes in a name come on top.
UniProt Q8IWF6: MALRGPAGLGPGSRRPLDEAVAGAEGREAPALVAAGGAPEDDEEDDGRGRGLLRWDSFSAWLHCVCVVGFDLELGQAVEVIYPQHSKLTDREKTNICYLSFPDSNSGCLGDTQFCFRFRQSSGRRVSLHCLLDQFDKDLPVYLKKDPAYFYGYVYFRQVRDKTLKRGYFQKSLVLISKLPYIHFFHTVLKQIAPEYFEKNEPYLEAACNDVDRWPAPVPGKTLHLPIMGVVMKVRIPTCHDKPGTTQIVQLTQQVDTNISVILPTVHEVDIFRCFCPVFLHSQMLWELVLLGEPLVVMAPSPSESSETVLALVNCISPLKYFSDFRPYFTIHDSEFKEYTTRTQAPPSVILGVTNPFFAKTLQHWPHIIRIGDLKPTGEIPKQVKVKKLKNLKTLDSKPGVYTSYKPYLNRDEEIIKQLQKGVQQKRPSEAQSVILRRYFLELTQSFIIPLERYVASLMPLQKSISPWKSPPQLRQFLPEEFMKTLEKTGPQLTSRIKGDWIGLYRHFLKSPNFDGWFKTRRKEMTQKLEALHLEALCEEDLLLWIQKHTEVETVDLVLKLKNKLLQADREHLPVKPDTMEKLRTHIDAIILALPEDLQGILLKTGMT
UniProt O43583: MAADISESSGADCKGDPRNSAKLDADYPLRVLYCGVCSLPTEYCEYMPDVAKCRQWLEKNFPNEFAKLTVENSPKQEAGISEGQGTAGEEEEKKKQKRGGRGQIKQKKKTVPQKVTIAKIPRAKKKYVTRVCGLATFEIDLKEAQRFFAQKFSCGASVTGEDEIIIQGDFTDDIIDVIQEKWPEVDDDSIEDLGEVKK
UniProt Q9UHI6: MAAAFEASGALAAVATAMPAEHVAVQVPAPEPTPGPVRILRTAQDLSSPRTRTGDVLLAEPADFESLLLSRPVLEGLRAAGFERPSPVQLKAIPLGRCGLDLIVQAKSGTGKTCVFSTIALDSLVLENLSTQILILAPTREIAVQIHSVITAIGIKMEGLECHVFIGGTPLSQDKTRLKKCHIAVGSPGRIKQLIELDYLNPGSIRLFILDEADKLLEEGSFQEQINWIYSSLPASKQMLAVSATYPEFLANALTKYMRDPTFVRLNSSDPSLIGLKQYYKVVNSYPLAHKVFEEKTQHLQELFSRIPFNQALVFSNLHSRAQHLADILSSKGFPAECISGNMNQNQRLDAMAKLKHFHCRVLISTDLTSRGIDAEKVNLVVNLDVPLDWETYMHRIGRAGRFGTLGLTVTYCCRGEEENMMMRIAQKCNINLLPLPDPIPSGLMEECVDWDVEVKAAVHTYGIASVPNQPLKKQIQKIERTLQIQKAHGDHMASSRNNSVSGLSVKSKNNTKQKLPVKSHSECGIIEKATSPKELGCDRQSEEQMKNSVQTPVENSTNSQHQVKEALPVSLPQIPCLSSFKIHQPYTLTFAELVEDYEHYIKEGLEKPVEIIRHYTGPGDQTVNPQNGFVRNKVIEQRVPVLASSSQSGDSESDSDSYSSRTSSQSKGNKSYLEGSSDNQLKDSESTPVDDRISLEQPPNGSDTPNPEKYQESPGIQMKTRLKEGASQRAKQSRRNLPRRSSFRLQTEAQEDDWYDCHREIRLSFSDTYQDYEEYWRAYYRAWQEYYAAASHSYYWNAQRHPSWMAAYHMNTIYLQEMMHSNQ
UniProt Q86SQ9: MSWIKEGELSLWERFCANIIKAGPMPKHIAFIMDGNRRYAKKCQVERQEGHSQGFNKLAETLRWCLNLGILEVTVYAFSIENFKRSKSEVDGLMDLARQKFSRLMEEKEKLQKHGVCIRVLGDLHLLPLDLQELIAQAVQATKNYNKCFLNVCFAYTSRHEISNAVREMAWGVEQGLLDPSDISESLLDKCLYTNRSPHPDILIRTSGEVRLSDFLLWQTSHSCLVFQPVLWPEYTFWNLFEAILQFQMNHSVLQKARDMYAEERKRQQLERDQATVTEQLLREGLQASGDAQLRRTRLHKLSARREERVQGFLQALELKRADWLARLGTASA
UniProt Q13574: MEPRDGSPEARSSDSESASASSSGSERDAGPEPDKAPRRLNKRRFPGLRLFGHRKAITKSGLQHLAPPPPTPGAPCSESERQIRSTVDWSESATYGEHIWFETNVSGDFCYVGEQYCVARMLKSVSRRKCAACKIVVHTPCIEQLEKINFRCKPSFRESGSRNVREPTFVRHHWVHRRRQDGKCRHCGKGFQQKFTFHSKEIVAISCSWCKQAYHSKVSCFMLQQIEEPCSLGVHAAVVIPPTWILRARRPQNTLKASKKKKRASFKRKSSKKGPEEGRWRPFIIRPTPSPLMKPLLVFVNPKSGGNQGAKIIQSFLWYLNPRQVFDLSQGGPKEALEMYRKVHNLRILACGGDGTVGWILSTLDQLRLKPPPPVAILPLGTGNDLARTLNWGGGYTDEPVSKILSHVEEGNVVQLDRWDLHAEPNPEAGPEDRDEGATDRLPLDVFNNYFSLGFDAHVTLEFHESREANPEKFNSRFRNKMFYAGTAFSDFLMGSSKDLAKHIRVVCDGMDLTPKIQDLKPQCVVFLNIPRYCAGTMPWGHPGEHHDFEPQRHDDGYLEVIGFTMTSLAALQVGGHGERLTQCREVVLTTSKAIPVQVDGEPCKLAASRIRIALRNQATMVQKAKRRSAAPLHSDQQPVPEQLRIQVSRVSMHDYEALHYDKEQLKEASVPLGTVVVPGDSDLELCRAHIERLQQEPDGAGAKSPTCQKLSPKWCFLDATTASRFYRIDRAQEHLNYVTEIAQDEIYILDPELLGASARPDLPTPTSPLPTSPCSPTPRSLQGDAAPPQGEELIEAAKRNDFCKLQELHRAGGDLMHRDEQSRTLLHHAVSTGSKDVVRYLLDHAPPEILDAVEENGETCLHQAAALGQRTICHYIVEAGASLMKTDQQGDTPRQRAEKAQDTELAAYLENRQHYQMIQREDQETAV
UniProt P11532, whole entry, looked up: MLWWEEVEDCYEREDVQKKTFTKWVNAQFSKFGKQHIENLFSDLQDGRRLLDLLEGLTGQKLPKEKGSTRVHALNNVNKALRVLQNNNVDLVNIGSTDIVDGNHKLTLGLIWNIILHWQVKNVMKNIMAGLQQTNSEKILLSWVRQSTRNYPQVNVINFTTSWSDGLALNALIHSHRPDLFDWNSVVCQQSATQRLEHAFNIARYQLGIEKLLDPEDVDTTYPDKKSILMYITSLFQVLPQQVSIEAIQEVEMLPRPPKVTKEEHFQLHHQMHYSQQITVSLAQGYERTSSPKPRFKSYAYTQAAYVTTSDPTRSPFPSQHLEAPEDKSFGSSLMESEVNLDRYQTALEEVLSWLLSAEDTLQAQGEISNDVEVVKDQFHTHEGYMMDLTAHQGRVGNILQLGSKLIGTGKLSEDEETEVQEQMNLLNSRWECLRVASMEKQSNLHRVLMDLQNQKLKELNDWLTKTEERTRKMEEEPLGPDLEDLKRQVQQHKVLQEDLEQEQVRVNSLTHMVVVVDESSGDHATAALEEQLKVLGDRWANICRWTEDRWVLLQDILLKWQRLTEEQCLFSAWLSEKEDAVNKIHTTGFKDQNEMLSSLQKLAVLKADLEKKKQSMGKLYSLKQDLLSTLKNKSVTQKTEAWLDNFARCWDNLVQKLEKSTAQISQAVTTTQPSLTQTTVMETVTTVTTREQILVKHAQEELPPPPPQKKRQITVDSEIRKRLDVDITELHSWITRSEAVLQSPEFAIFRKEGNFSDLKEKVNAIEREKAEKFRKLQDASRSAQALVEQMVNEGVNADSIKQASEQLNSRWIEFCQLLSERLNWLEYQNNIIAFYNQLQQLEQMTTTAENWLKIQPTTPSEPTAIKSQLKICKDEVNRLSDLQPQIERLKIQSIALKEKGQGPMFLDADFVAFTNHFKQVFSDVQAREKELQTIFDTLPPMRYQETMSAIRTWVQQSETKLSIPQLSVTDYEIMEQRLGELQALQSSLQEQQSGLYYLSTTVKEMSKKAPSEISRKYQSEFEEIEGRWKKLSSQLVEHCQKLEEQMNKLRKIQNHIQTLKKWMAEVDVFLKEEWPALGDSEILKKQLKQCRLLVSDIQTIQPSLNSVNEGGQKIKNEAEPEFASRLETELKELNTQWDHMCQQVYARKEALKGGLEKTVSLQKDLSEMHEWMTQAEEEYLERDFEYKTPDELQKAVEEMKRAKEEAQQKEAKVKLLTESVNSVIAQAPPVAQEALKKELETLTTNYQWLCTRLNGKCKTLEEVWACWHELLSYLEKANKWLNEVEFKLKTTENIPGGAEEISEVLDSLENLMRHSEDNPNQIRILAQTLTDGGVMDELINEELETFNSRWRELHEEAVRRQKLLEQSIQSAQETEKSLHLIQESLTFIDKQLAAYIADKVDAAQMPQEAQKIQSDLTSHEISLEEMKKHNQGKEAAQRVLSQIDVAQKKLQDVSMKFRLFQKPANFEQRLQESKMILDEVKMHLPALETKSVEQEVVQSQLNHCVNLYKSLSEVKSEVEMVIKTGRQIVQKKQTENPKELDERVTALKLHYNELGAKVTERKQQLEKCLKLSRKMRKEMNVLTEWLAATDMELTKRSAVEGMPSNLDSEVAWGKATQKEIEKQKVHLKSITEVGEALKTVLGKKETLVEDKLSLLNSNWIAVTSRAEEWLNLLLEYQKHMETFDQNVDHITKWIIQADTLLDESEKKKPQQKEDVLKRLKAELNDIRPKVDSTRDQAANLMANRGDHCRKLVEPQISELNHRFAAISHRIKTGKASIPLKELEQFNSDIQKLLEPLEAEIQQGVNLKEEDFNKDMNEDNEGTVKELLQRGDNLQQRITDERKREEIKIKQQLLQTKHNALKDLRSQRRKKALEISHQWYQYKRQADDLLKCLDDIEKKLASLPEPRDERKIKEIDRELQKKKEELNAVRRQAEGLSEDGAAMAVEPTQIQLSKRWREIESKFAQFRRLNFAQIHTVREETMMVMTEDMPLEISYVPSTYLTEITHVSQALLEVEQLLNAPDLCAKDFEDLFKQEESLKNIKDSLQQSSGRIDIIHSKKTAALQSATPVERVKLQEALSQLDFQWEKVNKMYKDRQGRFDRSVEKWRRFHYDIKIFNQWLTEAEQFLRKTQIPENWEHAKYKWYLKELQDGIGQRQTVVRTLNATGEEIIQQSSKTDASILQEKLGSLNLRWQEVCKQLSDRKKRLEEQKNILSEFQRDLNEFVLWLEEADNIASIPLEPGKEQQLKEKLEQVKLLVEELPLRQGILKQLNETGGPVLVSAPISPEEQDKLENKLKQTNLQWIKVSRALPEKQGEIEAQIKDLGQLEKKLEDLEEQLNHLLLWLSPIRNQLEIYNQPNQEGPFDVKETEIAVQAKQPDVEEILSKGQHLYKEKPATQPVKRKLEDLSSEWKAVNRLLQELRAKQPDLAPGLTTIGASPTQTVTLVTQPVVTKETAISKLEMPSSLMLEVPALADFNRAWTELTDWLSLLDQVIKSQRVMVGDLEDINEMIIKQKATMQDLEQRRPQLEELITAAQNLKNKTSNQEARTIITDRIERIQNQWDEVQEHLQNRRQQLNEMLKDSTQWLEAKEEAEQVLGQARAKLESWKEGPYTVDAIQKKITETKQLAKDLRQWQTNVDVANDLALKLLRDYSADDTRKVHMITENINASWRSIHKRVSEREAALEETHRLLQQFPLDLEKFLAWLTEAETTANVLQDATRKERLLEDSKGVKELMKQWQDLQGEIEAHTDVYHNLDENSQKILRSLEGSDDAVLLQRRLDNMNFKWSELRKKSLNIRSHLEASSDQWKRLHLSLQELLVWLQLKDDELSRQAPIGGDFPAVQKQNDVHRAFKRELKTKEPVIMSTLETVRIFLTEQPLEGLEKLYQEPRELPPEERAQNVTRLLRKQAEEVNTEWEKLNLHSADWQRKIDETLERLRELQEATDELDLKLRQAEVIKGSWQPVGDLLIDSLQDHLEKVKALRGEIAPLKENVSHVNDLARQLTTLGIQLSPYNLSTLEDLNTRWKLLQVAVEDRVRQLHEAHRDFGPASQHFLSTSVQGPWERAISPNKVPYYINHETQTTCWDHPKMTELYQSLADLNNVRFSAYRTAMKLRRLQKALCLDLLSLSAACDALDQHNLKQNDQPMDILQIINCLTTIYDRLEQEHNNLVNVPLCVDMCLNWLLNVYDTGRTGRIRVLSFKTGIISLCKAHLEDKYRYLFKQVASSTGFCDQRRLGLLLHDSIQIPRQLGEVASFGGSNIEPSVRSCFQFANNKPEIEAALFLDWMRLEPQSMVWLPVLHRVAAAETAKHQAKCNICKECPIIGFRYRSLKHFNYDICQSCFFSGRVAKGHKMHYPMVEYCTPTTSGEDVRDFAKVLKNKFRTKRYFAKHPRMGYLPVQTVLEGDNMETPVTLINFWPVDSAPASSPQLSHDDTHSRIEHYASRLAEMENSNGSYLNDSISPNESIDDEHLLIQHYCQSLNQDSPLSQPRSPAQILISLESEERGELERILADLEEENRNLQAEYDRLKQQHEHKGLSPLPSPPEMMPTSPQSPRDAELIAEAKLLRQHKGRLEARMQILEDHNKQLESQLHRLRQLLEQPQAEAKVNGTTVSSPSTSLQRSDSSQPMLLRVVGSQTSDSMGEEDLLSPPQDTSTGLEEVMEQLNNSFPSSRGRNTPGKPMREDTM

Compound in the assay: COC(=O)N[C@@H](C)CNc1nccc(-c2cn(C(C)C)nc2-c2cc(Cl)cc(NS(C)(=O)=O)c2F)n1 [encorafenib]
As to the kind of experiment: log2 fold change, soluble protein after heating vs DMSO (PISA); higher = thermal stabilisation; K562 cells, 10 uM, 30 min; active = over 0.2 and 3.5 SD of the protein, either way, in both replicates (recomputed). A digest of the protocol:
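K562 cells at 2×10^6 cells/mL were exposed to 10 μM compound for 30 min, then aliquots were heated for 3 min across 48°C-58°C, pooled, and extracted in PBS containing 0.5% NP-40 at 4°C. The supernatant after 21,000xg for 90 min was taken as soluble protein and measured by TMTpro 16plex LC-MS/MS with channel sums equalised. Thermal stability is reported relative to control samples, with values from duplicates. Fold changes are given on a log2 scale.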
With DGCR8 (UniProt Q8WYQ5), the log2 fold change was inactive: 0.221.
As for DENND6A (UniProt Q8IWF6), the figure is inactive: -0.009; as for DHX57 (UniProt Q6P158), inactive: 0.106; as for DHRS11 (UniProt Q6UWP2), inactive: -0.011.
Consider DENR (UniProt O43583), for which the log2 fold change was inactive: -0.01.
In the case of DHX15 (UniProt O43143), the log2 fold change is inactive: -0.001.
Turning to DEK (UniProt P35659), the log2 fold change is inactive: 0.089.
Take DENND4C isoform 7 (UniProt Q5VZ89): the log2 fold change was inactive: 0.035.
In the case of DDX21 (UniProt Q9NR30) it was inactive: 0.101; in that of DDHD2 (UniProt O94830), inactive: -0.052.
Consider DIDO1 (UniProt Q9BTC0), for which the log2 fold change was inactive: 0.046.
As to DIP2B (UniProt Q9P265), the log2 fold change was inactive: 0.004.
On to DIS3L (UniProt Q8TF46), for which the log2 fold change was inactive: -0.509.
On to DDT (UniProt P30046), for which the log2 fold change is inactive: -0.027.
In the case of DDI2 isoform 3 (UniProt Q5TDH0) it was inactive: -0.028; in that of DDX42 (UniProt Q86XP3), inactive: -0.06.
As for DDX41 (UniProt Q9UJV9), the log2 fold change was inactive: 0.
Regarding DDX20 (UniProt Q9UHI6), the log2 fold change was inactive: 0.296.
On to DNAH9 (UniProt Q9NYC9), for which the log2 fold change is inactive: 0.021.
In the case of DDX19B (UniProt Q9UMR2) it was inactive: 0.014; in that of DDX49 (UniProt Q9Y6V7), inactive: 0.074; in that of DDAH2 (UniProt O95865), inactive: -0.05.
Regarding DHDDS isoform 2 (UniProt Q86SQ9), the log2 fold change is inactive: 0.03.
In the case of DGKZ (UniProt Q13574) it was inactive: -0.026.
As for DMTN (UniProt Q08495), the figure is inactive: -0.039; as for DMD (UniProt P11532), inactive: 0.007; as for DGUOK (UniProt Q16854), inactive: -0.024.
In the case of DNAJA2 (UniProt O60884) it was inactive: -0.002.
Regarding DIMT1 (UniProt Q9UNQ2), the log2 fold change was inactive: 0.131.
For the target DHX8 (UniProt Q14562), the log2 fold change was inactive: -0.006.
Consider DFFA (UniProt O00273), for which the log2 fold change was inactive: -0.005.
In the case of DDX23 (UniProt Q9BUQ8), the log2 fold change is inactive: 0.038.
In the case of DERL1 (UniProt Q9BUN8) it was inactive: -0.034.

These data come from the supplement of paper PMC10849652.
